{"source": "paper PMC4907212", "about": "“Mucosal and blood-brain barrier transport kinetics of the plant N-alkylamide spilanthol using in vitro and in vivo models” (BMC Complementary and Alternative Medicine, 2016)", "assay": "Caco-2 cell permeability assay (Transwell, ab and ba direction)", "type": "in vitro ADME", "conditions": "human, Caco-2, high-permeability (positive) control", "protocol": "Caco-2 cells, originating from a human colorectal carcinoma were maintained in Dulbecco's modified Eagle's medium (DMEM) at 95 % humidity and 37 °C in an atmosphere of 5 % CO2, supplemented with 10 % (V/V) fetal bovine serum, 2 mM L-glutamine and 1 % non-essential amino acids (100x), 100 U/ml penicillin and 100 μg/ml streptomycin (all from Invitrogen/GIBCO, Ghent, Belgium). The Caco-2 cell intestinal model was used as a model for the gut mucosa to investigate the permeation of spilanthol. Caco-2 cells were seeded at a density of 2.6 · 10^5 cells/cm^2 cells for each Transwell (Corning Costar, New York, USA) membrane insert filter (0.4 μm pore size, 12 mm filter diameter) and cultivated in the described supplemented DMEM, also containing 100 units/ml penicillin and 100 μg/ml streptomycin. The medium was changed every second day. The cells were allowed to grow and differentiate for 21-29 days until monolayers were formed. […] Quantification of spilanthol was conducted using the UPLC-MS^2 method as described below. The apparent permeability coefficient (Papp in cm/s) of spilanthol was calculated from a non-sink equation. […] The efflux ratio is calculated as Papp,ba/Papp,ab, while the uptake ratio is calculated as Papp,ab/Papp,ba."}
{"smiles": "CC(C)NCC(O)COc1cccc2ccccc12", "note": "(stereo not shown) [Propranolol, propranolol, reference compound]", "values": [{"measurement": "Papp A→B at 120 min, 20 μM", "value": 19.1, "unit": "×10⁻⁶ cm/s"}]}
